From PMC5651854
For at least one entry, the source does not settle the construct or the ends of the probe. At least one verdict was read from the data and is not stated in words by the source.

Chains of the proteins cited; added tags and fusions are not shown. Lines headed by an entry give the natural chain unless they say otherwise; changes in a name come on top. Chains listed by the source or under a name are the forms on record and can include a tag or linker.
UniProt Q9NUX5: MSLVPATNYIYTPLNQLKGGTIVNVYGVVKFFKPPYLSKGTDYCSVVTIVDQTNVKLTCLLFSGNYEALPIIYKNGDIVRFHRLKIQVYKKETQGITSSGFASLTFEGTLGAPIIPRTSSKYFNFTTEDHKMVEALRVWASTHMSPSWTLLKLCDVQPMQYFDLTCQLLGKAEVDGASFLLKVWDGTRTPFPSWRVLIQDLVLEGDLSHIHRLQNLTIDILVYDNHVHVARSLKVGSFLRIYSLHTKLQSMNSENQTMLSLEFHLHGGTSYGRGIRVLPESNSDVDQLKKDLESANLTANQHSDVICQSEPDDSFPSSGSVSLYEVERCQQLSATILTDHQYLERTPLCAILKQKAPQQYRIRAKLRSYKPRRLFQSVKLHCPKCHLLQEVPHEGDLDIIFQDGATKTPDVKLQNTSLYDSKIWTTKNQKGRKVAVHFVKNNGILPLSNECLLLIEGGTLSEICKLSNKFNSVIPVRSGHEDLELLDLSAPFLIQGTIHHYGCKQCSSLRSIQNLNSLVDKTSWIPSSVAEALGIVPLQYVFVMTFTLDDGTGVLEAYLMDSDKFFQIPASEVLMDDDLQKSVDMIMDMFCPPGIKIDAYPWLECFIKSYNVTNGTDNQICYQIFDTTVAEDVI
shelterin core(-POT1 +RAP1) (RAP1-TRF2-TIN2-TPP1) (Homo sapiens), one chain, as listed by the source, chain 2 of 4: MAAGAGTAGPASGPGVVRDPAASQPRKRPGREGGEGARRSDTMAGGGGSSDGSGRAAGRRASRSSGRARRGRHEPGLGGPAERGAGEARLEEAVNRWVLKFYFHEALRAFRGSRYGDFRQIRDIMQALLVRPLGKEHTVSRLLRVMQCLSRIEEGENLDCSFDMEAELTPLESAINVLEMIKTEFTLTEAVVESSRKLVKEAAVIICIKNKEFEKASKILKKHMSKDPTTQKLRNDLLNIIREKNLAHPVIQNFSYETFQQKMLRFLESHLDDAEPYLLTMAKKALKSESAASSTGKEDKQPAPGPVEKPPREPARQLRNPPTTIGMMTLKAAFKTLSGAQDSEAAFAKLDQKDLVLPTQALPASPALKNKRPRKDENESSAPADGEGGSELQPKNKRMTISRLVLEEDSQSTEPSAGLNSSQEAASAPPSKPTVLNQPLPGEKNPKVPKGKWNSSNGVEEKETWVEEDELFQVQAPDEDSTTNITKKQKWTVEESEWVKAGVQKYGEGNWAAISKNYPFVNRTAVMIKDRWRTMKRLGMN
shelterin core(-POT1 +RAP1) (RAP1-TRF2-TIN2-TPP1) (Homo sapiens), one chain, as listed by the source, chain 3 of 4: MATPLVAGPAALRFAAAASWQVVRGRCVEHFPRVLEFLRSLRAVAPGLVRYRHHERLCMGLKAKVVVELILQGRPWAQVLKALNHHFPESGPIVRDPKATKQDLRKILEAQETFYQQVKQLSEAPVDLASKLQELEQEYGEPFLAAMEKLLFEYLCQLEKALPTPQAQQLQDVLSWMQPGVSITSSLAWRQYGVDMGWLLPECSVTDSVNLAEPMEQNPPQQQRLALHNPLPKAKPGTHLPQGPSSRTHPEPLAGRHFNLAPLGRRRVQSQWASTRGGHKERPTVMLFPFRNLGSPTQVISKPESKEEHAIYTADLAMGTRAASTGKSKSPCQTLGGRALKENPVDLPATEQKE
shelterin core(-POT1 +RAP1) (RAP1-TRF2-TIN2-TPP1) (Homo sapiens), one chain, as listed by the source, chain 1 of 4: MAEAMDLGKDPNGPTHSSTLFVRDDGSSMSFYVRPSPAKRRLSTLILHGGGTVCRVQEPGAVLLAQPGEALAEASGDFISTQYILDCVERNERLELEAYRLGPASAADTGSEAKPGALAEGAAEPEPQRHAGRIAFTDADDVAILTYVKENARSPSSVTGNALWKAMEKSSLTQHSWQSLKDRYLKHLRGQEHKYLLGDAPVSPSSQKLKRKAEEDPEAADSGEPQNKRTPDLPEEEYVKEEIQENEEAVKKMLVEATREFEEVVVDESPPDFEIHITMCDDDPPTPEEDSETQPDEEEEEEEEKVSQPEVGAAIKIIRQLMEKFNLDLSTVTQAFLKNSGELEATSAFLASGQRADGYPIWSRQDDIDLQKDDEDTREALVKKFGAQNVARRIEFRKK
shelterin core(-POT1 +RAP1) (RAP1-TRF2-TIN2-TPP1) (Homo sapiens), one chain, as listed by the source, chain 4 of 4: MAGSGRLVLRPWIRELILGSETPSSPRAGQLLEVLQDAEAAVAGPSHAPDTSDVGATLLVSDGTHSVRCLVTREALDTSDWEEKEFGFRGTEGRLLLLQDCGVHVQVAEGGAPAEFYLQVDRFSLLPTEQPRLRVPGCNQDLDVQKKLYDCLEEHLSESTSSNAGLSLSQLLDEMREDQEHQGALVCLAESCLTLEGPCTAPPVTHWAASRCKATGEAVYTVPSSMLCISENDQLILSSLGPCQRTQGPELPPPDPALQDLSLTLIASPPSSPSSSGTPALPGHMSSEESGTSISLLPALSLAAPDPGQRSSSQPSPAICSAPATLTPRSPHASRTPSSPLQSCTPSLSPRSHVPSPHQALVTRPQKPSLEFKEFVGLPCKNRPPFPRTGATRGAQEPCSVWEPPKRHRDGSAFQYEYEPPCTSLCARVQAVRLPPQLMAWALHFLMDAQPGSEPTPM

Key:
POT1 (Homo sapiens) = POT1 (Homo sapiens) (UniProt Q9NUX5); experiment: EMSA (agarose); conditions: 500 nM protein; Agarose EMSA: 50 mM Tris-HCl pH 8.0, 150 mM KCl, 2 mM MgCl2, 1 mM DTT, 10% glycerol, 0.5 mg/ml BSA, 0.02 mg/ml carrier dsDNA, 30 min 23 C (gel at 4 C); recombinant protein; protein details: His-MBP cleaved; label: 5'-32P on long strand (EMSA)
[1] = test system: shelterin core(-POT1 +RAP1) (RAP1-TRF2-TIN2-TPP1) (Homo sapiens); experiment: EMSA (agarose); conditions: preferences unchanged vs core(-POT1); Agarose EMSA: 50 mM Tris-HCl pH 8.0, 150 mM KCl, 2 mM MgCl2, 1 mM DTT, 10% glycerol, 0.5 mg/ml BSA, 0.02 mg/ml carrier dsDNA, 30 min 23 C (gel at 4 C); recombinant protein; label: 5'-32P sense strand

“GACCATGCTTAGGGTTAGGGTTATCATACAAGTTAGGGTTAGGG / TTGTATGATAACCCTAACCCTAAGCATGGTC [C8]”: binds (POT1 (Homo sapiens)).

“GACCATGCTTAGGGTTAGGGTTATCATACAA (double strand) [ds-TEL]”: binds [1].
